Patent US20190145976A1 (GOVERNING COUNCIL OF THE UNIVERSITY OF TORONTO, published 2019)
Results are given in words; binding and its absence hold for the method and conditions named. Binding calls can cover weak binding; strength is not graded here.

Key:
[1] = molecular target: extracellular domain of murine αKlotho (A35 to K982) with a C-terminal FLAG tag (mouse); test: Fab-phage ELISA on immobilised antigen, HRP-conjugated anti-phage antibody, absorbance at 450 nm
[2] = molecular target: extracellular domain of murine αKlotho (A35 to K982) with a C-terminal FLAG tag (mouse); test: Fab-phage ELISA on immobilised antigen

B1: sb106 Fab-phage (Fab, V domains shown)
VH: EVQLVESGGGLVQPGGSLRLSCAASGFNISYYSIHWVRQAPGKGLEWVAYISPSYGYTSYADSVKGRFTISADTSKNTAYLQMNSLRAEDTAVYYCARYYVYASHGWAGYGMDYWGQGTLVTVSS
VL: DIQMTQSPSSLSASVGDRVTITCRASQSVSSAVAWYQQKPGKAPKLLIYSASSLYSGVPSRFSGSRSGTDFTLTISSLQPEDFATYYCQQAGYSPITFGQGTKVEIKR
notes: also called sb106-phage; Sb106-phage
binding [1]: binds
binding [2]: binds
